From patent US20120100152A1
These are yes or no findings as the source states them, for the method shown. Some entries that bind do so weakly or less than the wild type.

How the values were obtained:
[1] = target: T1, human CD52 (wildtype) (human); test: flow cytometry, B104 cells
T1 sequence (chain, glycosylated (N-linked glycan), GPI-anchored): GQNDTSQTSSPS

[2] = target: T1, human CD52 (wildtype) (human); test: flow cytometry, CHO-CD52 cells
[3] = target: T1, human CD52 (wildtype) (human); test: flow cytometry, B104 cells (FIG. 18)
[4] = target: T1, human CD52 (wildtype) (human); test: FACS, B104 B cell line (endogenous CD52), FITC goat anti-human secondary, Geo Mean divided by that of secondary only (Example 15)
[5] = target: T1, human CD52 (wildtype) (human); test: flow cytometry, CHO-CD52 cells (FIG. 25)
[6] = target: T1, human CD52 (wildtype) (human); test: flow cytometry, CHO-CD52 cells, antibody at 10 µg/ml
[7] = target: T1, human CD52 (wildtype) (human); test: flow cytometry, CHO-CD52 cells, antibody at 10 ug/ml, FITC goat anti-human secondary (Example 22)
[8] = target: T1, human CD52 (wildtype) (human); test: flow cytometry, CHO-CD52 cells (FIG. 27B)
[9] = target: T2, affinity purified CD52 from CHO-CD52 cells, mock-treated (glycosylated CD52) (human); test: western blot of affinity purified CD52 +/- PNGase-F, antibody at 3 µg/ml
T2 sequence (chain, N-linked glycan present; GPI anchor): GQNDTSQTSSPS

[10] = target: T1, human CD52 (wildtype) (human); test: flow cytometry, human CD4+ T cells and huCD52 transgenic mouse CD4+ T cells
[11] = target: T1, human CD52 (wildtype) (human); test: FACS, CHO cells expressing wild type human CD52, PE-conjugated goat anti-human secondary (Example 4)
[12] = target: T1, human CD52 (wildtype) (human); test: ten-colour flow cytometry, human PBMC, Alexa fluor 647-conjugated antibody, gated lymphocyte subsets (Example 7)
[13] = target: T1, human CD52 (wildtype) (human); test: flow cytometry, CHO-CD52 cells, methods of Example 22 (antibody at 10 ug/ml, FITC goat anti-human secondary) (Example 24)
[14] = target: T1, human CD52 (wildtype) (human); test: flow cytometry, CD4+ T cells from human PBMC and from huCD52 transgenic mouse spleen, 8-point 1:3 dilution from 100 ug/mL, FITC goat F(ab)2 anti-human Fc gamma secondary (Example 29)

Measured: binding

B1: humanized antibody 4B10-H1/K1 (antibody, V domains shown)
VH: EVQLVESGGGLVQPGGSLRLSCAASGFTFSDYYMSWVRQAPGKGLEWVGFIRNKANGYTTEYSASVKGRFTISRDDSKNSLYLQMNSLKTEDTAVYYCARYIWFDYWGQGTTVTVSS
VL: DIVMTQTPLSLSVTPGQPASISCRSSQSLVHTNGNTYLHWYLQKPGQSPQLLIYMVSNRFSGVPDRFSGSGSGTDFTLKISRVEAEDVGVYYCSQSAHVPPLTFGQGTRLEIKR
binds: [1] | [2] | [3] | [4]

B2: humanized antibody 7F11-SFD2/K2 (antibody, human IgG1, V domains shown)
VH: EVQLVESGGGLVQPGGSLRLSCAASGFTFTDYYMSWVRQAPGKGLEWVGFIRNKANGYTTEYNASVKGRFTISRDDSKNSLYLQMNSLKTEDTAVYYCARYIFFDYWGQGTTVTVSS
VL: DIVMTQTPLSLSVTPGQPASISCRSSQSLVHTNGNSYLHWYLQKPGQSPQLLIYMVSNRFSGVPDRFSGSGSGTDFTLKISRVEAEDVGVYYCSQSTHVPFTFGQGTKLEIK
binds: [5] | [6] | [7]

B3: chimeric 2C3 antibody (antibody, human IgG1, V domains shown)
VH: EVKLEESGGGLVQPGGSMKLSCVASGFTFNTYWMNWVRQSPEKGLEWVAQIRLKSNNYATHYAESVKGRFTISRDDSKNSVYLQMNNLRAEDTGIYYCTPVDFWGQGTTLTVSS
VL: DIVITQTPLTLSVTIGQPVSISCKSSQSLLYSNGKTYLNWLLQRPGQSPKRLIYLVSKLDSGVPDRFTGSGSGTDFTLKISRVEAEDLGVYYCVQGTHLHTFGAGTKLELK
binds: [2] | [8] | [9] | [10] | [11] | [12] | [13] | [14]
